Values from PubChem BioAssay AID1259425 (University of Nebraska Medical Center, 2018).

- Aim: 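Find knockdowns that reproduce the gene expression pattern seen when KSR1 is lost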 (primary screen)
- Cell system: HCT116 human colon cancer cells
- Reagents: siRNA pool against human genes, 50 nM siRNA
- Detection: 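After 50 nM siRNA pool, branched-DNA assay measures six marker transcripts per well, minus blank, normalised to the geometric mean of two housekeeping transcripts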
- Reading the numbers: BNIP3L mRNA: higher = more BNIP3L transcript after knockdown; NDRG1 mRNA: higher = more NDRG1 transcript after knockdown
This is a random part of about 14,000 reagents tested. Not all columns of the deposit are shown. Not given: the time to read-out.

COMMD10
- BNIP3L mRNA, set 1: 0.12
- NDRG1 mRNA, set 1: 0.321

UBQLN3
- BNIP3L mRNA, set 1: 0.0784
- NDRG1 mRNA, set 1: 0.0539

CD151
- BNIP3L mRNA, set 1: 0.0684
- NDRG1 mRNA, set 1: 0.449

FGF9
- BNIP3L mRNA, set 1: 0.0858
- NDRG1 mRNA, set 1: 0.0918

ADA2
- BNIP3L mRNA, set 1: 0.27
- NDRG1 mRNA, set 1: 0.405

DUX4L1
- BNIP3L mRNA, set 1: 0.0479
- NDRG1 mRNA, set 1: 0.131

G6PC1
- BNIP3L mRNA, set 1: 0.0912
- NDRG1 mRNA, set 1: 0.186

MON1A
- BNIP3L mRNA, set 1: 0.274
- NDRG1 mRNA, set 1: 0.21

The list goes on; the last 2 above are carried over.
G6PC1
- BNIP3L mRNA, set 1: 0.0912
- NDRG1 mRNA, set 1: 0.186

MON1A
- BNIP3L mRNA, set 1: 0.274
- NDRG1 mRNA, set 1: 0.21

RPL24
- BNIP3L mRNA, set 1: 0.0755
- NDRG1 mRNA, set 1: 0.255

MRPS2
- BNIP3L mRNA, set 1: 0.178
- NDRG1 mRNA, set 1: 0.67

COMMD2
- BNIP3L mRNA, set 1: 0.106
- NDRG1 mRNA, set 1: 0.0901

TNFAIP2
- BNIP3L mRNA, set 1: 0.088
- NDRG1 mRNA, set 1: 0.274

KCTD15
- BNIP3L mRNA, set 1: 0.274
- NDRG1 mRNA, set 1: 0.32

HIF1A
- BNIP3L mRNA, set 1: 0.0689
- NDRG1 mRNA, set 1: 0.0583

GPR27
- BNIP3L mRNA, set 1: 0.443
- NDRG1 mRNA, set 1: 0.737

ELOVL6
- BNIP3L mRNA, set 1: 0.112
- NDRG1 mRNA, set 1: 0.103

KNL1
- BNIP3L mRNA, set 1: 0.097
- NDRG1 mRNA, set 1: 0.746

CHRM3
- BNIP3L mRNA, set 1: 0.082
- NDRG1 mRNA, set 1: 0.128

KANSL3
- BNIP3L mRNA, set 1: 0.123
- NDRG1 mRNA, set 1: 0.294
